Data reported in PMC5576923.
No constants are given. Whether binding was seen depends on the method and setting. Binding seen in cells or lysates may run through a third protein. Some results given as binding are weak or reduced against the parent protein; the word gives no strength.

The chains behind the UniProt entries cited, without tags or fusion partners.
UniProt P49407: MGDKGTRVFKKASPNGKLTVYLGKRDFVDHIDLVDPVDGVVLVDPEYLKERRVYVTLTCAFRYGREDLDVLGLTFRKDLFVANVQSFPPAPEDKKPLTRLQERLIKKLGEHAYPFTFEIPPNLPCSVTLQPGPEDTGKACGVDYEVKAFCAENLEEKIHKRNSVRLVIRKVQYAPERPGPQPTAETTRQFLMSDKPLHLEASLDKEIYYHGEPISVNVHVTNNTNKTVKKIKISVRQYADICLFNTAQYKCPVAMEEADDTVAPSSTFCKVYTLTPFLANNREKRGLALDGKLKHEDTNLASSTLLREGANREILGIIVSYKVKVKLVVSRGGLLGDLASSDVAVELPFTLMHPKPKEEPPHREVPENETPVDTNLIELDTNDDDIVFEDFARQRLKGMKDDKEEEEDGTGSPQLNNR
UniProt Q5T5U3: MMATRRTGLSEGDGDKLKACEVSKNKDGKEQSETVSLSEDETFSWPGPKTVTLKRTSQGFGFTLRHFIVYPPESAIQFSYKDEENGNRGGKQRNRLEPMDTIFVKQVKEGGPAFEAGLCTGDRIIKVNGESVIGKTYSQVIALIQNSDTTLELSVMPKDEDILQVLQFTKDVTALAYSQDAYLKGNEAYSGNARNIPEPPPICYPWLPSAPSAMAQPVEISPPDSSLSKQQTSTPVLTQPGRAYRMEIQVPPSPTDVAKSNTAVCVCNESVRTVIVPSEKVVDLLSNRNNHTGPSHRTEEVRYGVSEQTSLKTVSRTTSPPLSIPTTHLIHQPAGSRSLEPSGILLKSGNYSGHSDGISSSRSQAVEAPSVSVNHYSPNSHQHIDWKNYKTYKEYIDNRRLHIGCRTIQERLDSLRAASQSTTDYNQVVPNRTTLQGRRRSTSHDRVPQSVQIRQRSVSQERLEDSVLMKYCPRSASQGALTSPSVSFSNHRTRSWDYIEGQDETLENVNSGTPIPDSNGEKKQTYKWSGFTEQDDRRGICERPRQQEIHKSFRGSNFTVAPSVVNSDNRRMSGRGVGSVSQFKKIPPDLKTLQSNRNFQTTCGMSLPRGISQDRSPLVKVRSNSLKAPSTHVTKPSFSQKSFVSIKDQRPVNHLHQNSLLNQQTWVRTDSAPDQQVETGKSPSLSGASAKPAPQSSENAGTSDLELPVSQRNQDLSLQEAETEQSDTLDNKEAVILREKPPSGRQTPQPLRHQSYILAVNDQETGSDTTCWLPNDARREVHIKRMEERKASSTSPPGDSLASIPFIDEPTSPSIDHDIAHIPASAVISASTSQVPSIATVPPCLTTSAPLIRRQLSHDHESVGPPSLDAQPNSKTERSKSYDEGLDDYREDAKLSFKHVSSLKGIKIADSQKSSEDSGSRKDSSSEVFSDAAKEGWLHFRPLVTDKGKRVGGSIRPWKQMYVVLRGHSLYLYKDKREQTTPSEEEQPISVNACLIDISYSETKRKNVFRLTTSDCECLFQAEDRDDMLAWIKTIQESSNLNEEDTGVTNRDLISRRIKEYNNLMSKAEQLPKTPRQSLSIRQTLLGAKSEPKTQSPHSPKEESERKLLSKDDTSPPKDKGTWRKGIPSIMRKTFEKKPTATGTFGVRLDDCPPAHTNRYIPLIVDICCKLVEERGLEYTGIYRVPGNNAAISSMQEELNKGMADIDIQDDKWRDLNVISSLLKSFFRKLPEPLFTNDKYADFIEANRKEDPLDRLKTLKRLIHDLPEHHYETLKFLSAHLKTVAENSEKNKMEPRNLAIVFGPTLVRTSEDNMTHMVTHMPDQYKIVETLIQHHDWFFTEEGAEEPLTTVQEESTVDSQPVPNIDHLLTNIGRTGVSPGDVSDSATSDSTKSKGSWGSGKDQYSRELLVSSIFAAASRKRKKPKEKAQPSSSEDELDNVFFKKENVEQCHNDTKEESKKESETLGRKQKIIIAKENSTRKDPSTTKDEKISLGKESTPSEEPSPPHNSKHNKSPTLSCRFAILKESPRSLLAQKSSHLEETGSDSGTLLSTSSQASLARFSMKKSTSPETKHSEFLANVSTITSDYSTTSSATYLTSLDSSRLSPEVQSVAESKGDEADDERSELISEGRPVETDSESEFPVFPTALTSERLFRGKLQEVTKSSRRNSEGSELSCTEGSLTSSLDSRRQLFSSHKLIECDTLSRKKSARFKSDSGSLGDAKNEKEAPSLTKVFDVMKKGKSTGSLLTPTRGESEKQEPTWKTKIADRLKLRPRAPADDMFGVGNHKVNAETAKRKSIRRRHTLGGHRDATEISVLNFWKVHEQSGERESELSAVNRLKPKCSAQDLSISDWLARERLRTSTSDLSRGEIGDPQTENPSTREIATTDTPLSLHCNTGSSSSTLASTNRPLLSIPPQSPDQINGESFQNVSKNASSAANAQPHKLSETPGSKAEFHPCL

Experiments:
[1] = target: β-Arrestin1 (human (endogenous in Caco-2 and HCT116)) (UniProt P49407); assay: co-IP; membrane fractions of ShPTEN and PTEN-/- cells after transfection with GFP-EV, C2, C2-MCBR3, wt PTEN or PTEN-MCBR3; β-Arrestin1 bait, ARHGAP21 blotted; normalised against total ARHGAP21 in the membrane fraction
[2] = target: β-Arrestin1 (human (endogenous in Caco-2 and HCT116)) (UniProt P49407); assay: co-IP; Caco-2 or HCT116 cells treated with 10 μM pep24 or 10 μM scrambled control peptide for 24 hr; β-Arrestin1 bait, ARHGAP21 blotted (the pair that is blocked)
[3] = target: β-Arrestin1 (human (endogenous in Caco-2 and HCT116)) (UniProt P49407); assay: co-IP; whole-cell lysates (1% Triton X-100, 50 mM NaCl, Tris pH 7.5) of Caco-2, ShPTEN, HCT116 and PTEN-/- cells, also after transfection with GFP-EV, GFP-C2 or GFP-C2-MCBR3; β-Arrestin1 immunoprecipitated as bait, ARHGAP21 blotted; IgG negative controls; normalised against total ARHGAP21

- binding [1]: binds
- binding [2]: binds
- binding [3]: binds
Substance: ARHGAP21 (from UniProt Q5T5U3 1-1958)
